Assay results: US20220008296A1, “CAPSULE FORMULATION” (Capsugel Belgium NV, priority 2014, published 2022)
At least one structure is not confirmed: it was looked up by name or label, or the drawing left a doubt.

Experiments:
[1] = acid resistance experiment: litmus colour inside oil-filled, band-sealed DRcaps capsule submerged in acid; format: physicochemical; design: key to Result (color): −: almost all red/unsuitable; +: about half red/passable; ++: all blue/excellent; conditions: 120 minutes after submersion in JP first liquid pH1.2, 37°
Experimental: The fine powder of a litmus reagent that changes to red in response to acid (blue, Wako Pure Chemical Industries Ltd. high grade), used as an active ingredient, is dispersed or dissolved in 0.2% by weight each of MCT, which is an edible oil (medium chain fatty acid triglyceride, coconad MT (made by Kao Co.) and glycerin, which is a water-based edible additive (made by Kao Co.) (dissolves very readily in water, comparative example). Then, 300 μL each of this solution is loaded into the separated body portion of an acid resistant hard capsule made by Capsugel (DRcaps (trademark), size no. 2, transparent no color). Then, a capsule formulation is prepared by sealing the fitted part of the cap portion and the body portion of the hard capsule using a band sealing solution (see FIG. 1). […]
The experiment was carried out with the same conditions used in example 1 (amount of oil, measurement conditions, measurement time, and the like), and the effect on acid resistance when another oil or surfactant is enclosed in the capsule was examined. In this example, the following criteria were determined based on the color of the fine litmus powder dissolved or dispersed in oil enclosed in a capsule. […]

[2] = cited from earlier work
[3] = cited from earlier work; remark: listed apart in the source

CC/C=C\C/C=C\C/C=C\C/C=C\C/C=C\C/C=C\CCC(=O)O [DHA, docosahexaenoic acid]
liquid color / acidification inside the capsule (in words) ([1]; Example 2): part of the inside of the capsule is acidified
Result (color) ([1]; colour of litmus powder in the fill of a DRcaps capsule, n=3): +
Specific Gravity (25° C.) [2]: 0.95
Iodine Value [3]: 188-205
